According to PMC11444248:
These are yes or no findings as the source states them, for the method shown. Binding seen in cells or lysates may run through a third protein. Some binding calls cover weakened binding; strength is not graded here.

Amino acid sequences for entries named in this document (tags omitted). Residues count along the entry.
UniProt P56726, residues 33-793: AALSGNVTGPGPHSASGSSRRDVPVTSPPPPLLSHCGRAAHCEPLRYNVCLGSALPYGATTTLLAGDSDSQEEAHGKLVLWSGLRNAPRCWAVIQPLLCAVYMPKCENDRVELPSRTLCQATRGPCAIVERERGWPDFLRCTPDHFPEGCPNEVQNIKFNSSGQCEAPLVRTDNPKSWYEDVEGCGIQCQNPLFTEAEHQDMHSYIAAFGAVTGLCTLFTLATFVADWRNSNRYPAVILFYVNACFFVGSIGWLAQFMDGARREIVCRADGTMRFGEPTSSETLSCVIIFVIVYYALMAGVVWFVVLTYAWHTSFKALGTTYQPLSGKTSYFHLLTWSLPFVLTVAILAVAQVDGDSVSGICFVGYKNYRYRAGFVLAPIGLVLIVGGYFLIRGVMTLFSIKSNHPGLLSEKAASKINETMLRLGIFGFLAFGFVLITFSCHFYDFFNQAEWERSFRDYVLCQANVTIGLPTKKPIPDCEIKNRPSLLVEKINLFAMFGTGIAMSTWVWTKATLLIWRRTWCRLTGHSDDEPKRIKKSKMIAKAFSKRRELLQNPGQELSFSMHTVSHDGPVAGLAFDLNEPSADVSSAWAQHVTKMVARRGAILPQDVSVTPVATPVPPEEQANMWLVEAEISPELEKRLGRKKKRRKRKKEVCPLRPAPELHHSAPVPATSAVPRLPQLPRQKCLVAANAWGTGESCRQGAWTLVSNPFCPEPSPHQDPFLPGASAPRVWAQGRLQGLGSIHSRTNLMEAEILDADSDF

T1: thymidine phosphorylase (TP) (mouse (endogenous in primary hepatocytes)) (UniProt Q99N42)
T1 sequence: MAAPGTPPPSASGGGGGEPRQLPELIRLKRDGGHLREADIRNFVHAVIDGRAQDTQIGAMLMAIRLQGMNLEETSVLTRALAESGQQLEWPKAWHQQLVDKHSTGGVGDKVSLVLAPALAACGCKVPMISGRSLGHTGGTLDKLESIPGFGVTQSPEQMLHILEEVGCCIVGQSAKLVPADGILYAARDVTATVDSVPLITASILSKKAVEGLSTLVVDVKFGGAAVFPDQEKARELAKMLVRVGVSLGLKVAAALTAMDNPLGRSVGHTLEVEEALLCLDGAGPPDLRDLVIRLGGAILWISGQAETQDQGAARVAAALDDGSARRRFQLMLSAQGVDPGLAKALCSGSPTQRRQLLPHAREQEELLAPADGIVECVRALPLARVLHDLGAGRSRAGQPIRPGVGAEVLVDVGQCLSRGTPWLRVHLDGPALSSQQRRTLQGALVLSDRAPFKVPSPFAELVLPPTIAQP

B1: thymidine phosphorylase (TP) (enzyme, UniProt Q99N42 1-471)
chain: T1 sequence
B2: nuclear factor erythroid 2-related factor 2 (Nrf2) (protein, UniProt Q60795 1-597)
chain: MMDLELPPPGLQSQQDMDLIDILWRQDIDLGVSREVFDFSQRQKDYELEKQKKLEKERQEQLQKEQEKAFFAQFQLDEETGEFLPIQPAQHIQTDTSGSASYSQVAHIPKQDALYFEDCMQLLAETFPFVDDHESLALDIPSHAESSVFTAPHQAQSLNSSLEAAMTDLSSIEQDMEQVWQELFSIPELQCLNTENKQLADTTAVPSPEATLTEMDSNYHFYSSISSLEKEVGNCGPHFLHGFEDSFSSILSTDDASQLTSLDSNPTLNTDFGDEFYSAFIAEPSDGGSMPSSAAISQSLSELLDGTIEGCDLSLCKAFNPKHAEGTMEFNDSDSGISLNTSPSRASPEHSVESSIYGDPPPGFSDSEMEELDSAPGSVKQNGPKAQPAHSPGDTVQPLSPAQGHSAPMRESQCENTTKKEVPVSPGHQKAPFTKDKHSSRLEAHLTRDELRAKALHIPFPVEKIINLPVDDFNEMMSKEQFNEAQLALIRDIRRRGKNKVAAQNCRKRKLENIVELEQDLGHLKDEREKLLREKGENDRNLHLLKRRLSTLYLEVFSMLRDEDGKPYSPSEYSLQQTRDGNVFLVPKSKKPDTKKN
B3: HO1 (enzyme, UniProt P14901 1-289)
chain: MERPQPDSMPQDLSEALKEATKEVHIQAENAEFMKNFQKGQVSREGFKLVMASLYHIYTALEEEIERNKQNPVYAPLYFPEELHRRAALEQDMAFWYGPHWQEIIPCTPATQHYVKRLHEVGRTHPELLVAHAYTRYLGDLSGGQVLKKIAQKAMALPSSGEGLAFFTFPNIDSPTKFKQLYRARMNTLEMTPEVKHRVTEEAKTAFLLNIELFEELQVMLTEEHKDQSPSQMASLRQRPASLVQDTAPAETPRGKPQISTSSSQTPLLQWVLTLSFLLATVAVGIYAM

Columns and labels:
[1] = target: Smoothened (Smo) (mouse (endogenous in primary hepatocytes)) (UniProt P56726); assay: co-IP; immunoprecipitation in extracts from mouse primary hepatocytes, detection by Western blot; which protein was precipitated is not told in the text or legend
[2] = target: T1, thymidine phosphorylase (TP) (mouse (endogenous in primary hepatocytes)); assay: as above

binding [1]	binding [2]	Binder
binds		B1
binds	binds	B2
binds	binds	B3
